For 28 compounds, TEAD-luciferase reporter activity results are on record in the supplement of paper PMC10735217.

Counter-ions that a name gives are not always drawn. Some of the results follow. This data set is noisy: repeats of one test often differ as much as different tests do.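 In a drug-repurposing library screen, luminescence reads luciferase driven by eight TEAD-binding elements, stably integrated into human kidney-derived cells. Compounds scoring over five robust Z scores above the plate mean are called hits.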

In this assay the test system is HEK293A TEAD-LUC reporter. Kind of assay: TEAD-luciferase reporter activity (YAP activation), robust Z score vs plate; higher = stronger YAP/TEAD activation. To be noted: 24 h.

Turning to `CCc1nc(C)cn2nc(-c3cc(=O)n4cc(C5CCN(C)CC5)cc(C)c4n3)cc12`, the TEAD-luciferase reporter activity (compound concentration: 200 nM) is inactive: -1.92, the TEAD-luciferase reporter activity (compound concentration: 2 uM) is inactive: 0.799 and the TEAD-luciferase reporter activity (compound concentration: 10 uM) was inactive: -0.356.

With `O=C(C1CCCN(C(=O)C2CCCC2)C1)N1CCC(N2CCCC2=O)CC1` (stereo unspecified), the TEAD-luciferase reporter activity (compound concentration: 200 nM) was inactive: 3.63.

For `CCOC(=O)[C@@H]1CCC(=O)N1`, the TEAD-luciferase reporter activity is inactive: 0.769 (compound concentration: 200 nM), inactive: 2.34 (compound concentration: 2 uM) and inactive: 2.57 (compound concentration: 10 uM).

As to `Cc1ccccc1C(=O)NC1CCN(c2nc3ncccc3o2)CC1`, the TEAD-luciferase reporter activity reads like this: (compound concentration: 200 nM) inactive: -1.36; (compound concentration: 10 uM) inactive: 0.499.

In the case of `O=C(CCCN1CCN(c2ccccn2)CC1)c1ccc(F)cc1` [Azaperone], the TEAD-luciferase reporter activity by setting is: (compound concentration: 200 nM) inactive: -2.19; (compound concentration: 2 uM) inactive: -1.28; (compound concentration: 10 uM) inactive: -1.44.

With `CCCCCCCC(=O)OCC(COC(=O)CCCCCCC)OC(=O)CCCCCCC` [Tricaprylin], the TEAD-luciferase reporter activity (compound concentration: 2 uM) was inactive: -0.982.

On to `CCCCCCCC(=O)OCC(COC(=O)CCCCCCC)OC(=O)CCCCCCC`, for which the TEAD-luciferase reporter activity reads like this: (compound concentration: 200 nM) inactive: -0.383; (compound concentration: 10 uM) inactive: 1.41.

Take `COc1ccnc(CS(=O)c2nc3cc(OC(F)F)ccc3[nH]2)c1OC` (single isomer, unassigned; (-)) [(-)-pantoprazole]: the TEAD-luciferase reporter activity (compound concentration: 2 uM) is inactive: -2.14.

On to `CCC(=O)Oc1ccc2c(c1)CC[C@@H]1[C@@H]2CC[C@]2(C)[C@@H](OC(=O)CC)CC[C@@H]12`, for which the TEAD-luciferase reporter activity was inactive: 1.06 (compound concentration: 200 nM), inactive: -0.907 (compound concentration: 2 uM) and inactive: 1.51 (compound concentration: 10 uM).

In the case of `Cc1cc(C)c(-c2ccc(NC(=O)[C@H](Cc3ccc(C(=O)NCCS(=O)(=O)O)cc3)c3ccc(-c4ccc(C(C)(C)C)cc4)cc3)cc2)c(C)c1`, the TEAD-luciferase reporter activity runs as follows: (compound concentration: 200 nM) inactive: -1.05; (compound concentration: 2 uM) inactive: -0.822; (compound concentration: 10 uM) inactive: -0.0988.

In the case of `O=C(c1ccc(F)cc1)C1CCN(CCn2c(=O)[nH]c3ccccc3c2=O)CC1` [ketanserin], the TEAD-luciferase reporter activity (compound concentration: 200 nM) is inactive: -0.72, the TEAD-luciferase reporter activity (compound concentration: 2 uM) was inactive: -2.72 and the TEAD-luciferase reporter activity (compound concentration: 10 uM) is inactive: -0.994.

Turning to `CO[C@H](C(=O)[C@@H](O)[C@@H](C)O)[C@@H]1Cc2cc3cc(O[C@H]4C[C@@H](O[C@H]5C[C@@H](O)[C@H](O)[C@@H](C)O5)[C@@H](O)[C@@H](C)O4)c(C)c(O)c3c(O)c2C(=O)[C@H]1O[C@H]1C[C@@H](O[C@H]2C[C@@H](O[C@H]3C[C@](C)(O)[C@H](O)[C@@H](C)O3)[C@H](O)[C@@H](C)O2)[C@H](O)[C@@H](C)O1` [Mithramycin A], the TEAD-luciferase reporter activity (compound concentration: 200 nM) is inactive: 2.16, the TEAD-luciferase reporter activity (compound concentration: 2 uM) is inactive: -2.09 and the TEAD-luciferase reporter activity (compound concentration: 10 uM) was inactive: -0.0671.

Consider `CO[C@H](C(=O)[C@@H](O)[C@@H](C)O)[C@@H]1Cc2cc3cc(O[C@H]4C[C@@H](O[C@H]5C[C@@H](O)[C@H](O)[C@@H](C)O5)[C@@H](O)[C@@H](C)O4)c(C)c(O)c3c(O)c2C(=O)[C@H]1O[C@H]1C[C@@H](O[C@H]2C[C@@H](O[C@H]3C[C@](C)(O)[C@H](O)[C@@H](C)O3)[C@H](O)[C@@H](C)O2)[C@H](O)[C@@H](C)O1` [Plicamycin], for which the TEAD-luciferase reporter activity (compound concentration: 2 uM) is inactive: -2.2.

Turning to `O=c1c2c(n(-c3cccc(Cl)c3)c3ncccc13)CCCC2`, the TEAD-luciferase reporter activity reads like this: (compound concentration: 200 nM) inactive: -0.651; (compound concentration: 2 uM) inactive: -0.317; (compound concentration: 10 uM) inactive: -0.442.

As for `COc1ccc2c3c1O[C@H]1C[C@@H](OC(=O)c4ccccc4)C=C[C@@]31CCN(C)C2` [Memogain], the TEAD-luciferase reporter activity (compound concentration: 200 nM) is inactive: 0.943, the TEAD-luciferase reporter activity (compound concentration: 2 uM) is inactive: -0.832 and the TEAD-luciferase reporter activity (compound concentration: 10 uM) is inactive: 2.96.

As to `N=C(N)NCCSSCCNC(=N)N` [Guanidinoethyldisulfide bicarbonate], the TEAD-luciferase reporter activity was inactive: -1.75 (compound concentration: 200 nM) and inactive: 0.167 (compound concentration: 10 uM).

For the compound `CCCCCCNC(=O)n1cc(F)c(=O)[nH]c1=O`, the TEAD-luciferase reporter activity was inactive: -0.35 (compound concentration: 200 nM) and inactive: -1.56 (compound concentration: 10 uM).

Turning to `CCCCCCNC(=O)n1cc(F)c(=O)[nH]c1=O` [carmofur], the TEAD-luciferase reporter activity (compound concentration: 2 uM) was inactive: -1.18.

As to `COc1ccc(COc2cc3oc(=O)c4cc(C(C)O)ccc4c3cc2OC)cc1` (stereo unspecified), where the note is “compound concentration: 2 uM”, the TEAD-luciferase reporter activity is inactive: -1.37.

On to `COc1ccc(COc2cc3oc(=O)c4cc(C(C)O)ccc4c3cc2OC)cc1` (stereo unspecified) [Palomid 529], for which the TEAD-luciferase reporter activity is inactive: -1.38 (compound concentration: 200 nM) and inactive: -0.537 (compound concentration: 10 uM).

Turning to `COc1cc2c3c(n(CCCNCCO)c(=O)c2cc1OC)-c1cc2c(cc1C3=O)OCO2`, the TEAD-luciferase reporter activity by setting is: (compound concentration: 200 nM) inactive: -2.13; (compound concentration: 2 uM) inactive: -0.135; (compound concentration: 10 uM) inactive: -1.5.

Consider `O=C1C(NC2CCCCCCC2)=CC(=O)c2ncccc21`, for which the TEAD-luciferase reporter activity (compound concentration: 200 nM) is inactive: -1.06, the TEAD-luciferase reporter activity (compound concentration: 2 uM) is inactive: -0.259 and the TEAD-luciferase reporter activity (compound concentration: 10 uM) was inactive: -1.13.

As for `COc1ccc(CC(=O)N2CCCC3(Cc4ccccc4CN3C(=O)C3CCCC3)C2)cc1` (stereo unspecified), the TEAD-luciferase reporter activity was inactive: 3.48 (compound concentration: 200 nM) and inactive: -0.344 (compound concentration: 10 uM).

For the compound `CCCCN(CCCC)c1ccc2nc3ccc(N(CCCC)CCCC)cc3[s+]c2c1`, the TEAD-luciferase reporter activity runs as follows: (compound concentration: 200 nM) inactive: -0.579; (compound concentration: 2 uM) inactive: -1.92; (compound concentration: 10 uM) inactive: -1.78.

As to `CCN(CC)CCN1C(=O)C(=Cc2ccc(OC)cc2)Nc2ccccc21` [caroverine fumarate], the TEAD-luciferase reporter activity is, setting by setting: (compound concentration: 200 nM) inactive: -1.85; (compound concentration: 2 uM) inactive: -0.618; (compound concentration: 10 uM) inactive: -1.05.

In the case of `CCCC1CC(NCC)c2cc(S(N)(=O)=O)sc2S1(=O)=O` (stereo unspecified), the TEAD-luciferase reporter activity is, setting by setting: (compound concentration: 200 nM) inactive: 0.156; (compound concentration: 2 uM) inactive: -0.978; (compound concentration: 10 uM) inactive: -0.308.

In the case of `Cc1ccc2c(Br)cc(Br)c(O)c2n1` [BROXALDINE metabolite], the TEAD-luciferase reporter activity reads like this: (compound concentration: 200 nM) inactive: 3.14; (compound concentration: 2 uM) inactive: -0.103; (compound concentration: 10 uM) inactive: 2.35.

With `CNC(=O)[C@H](C/C=C/c1ccc(N(C)c2ncccn2)cc1)NC(=O)c1c(F)cccc1F`, the TEAD-luciferase reporter activity is inactive: 0.363 (compound concentration: 200 nM), inactive: -0.155 (compound concentration: 2 uM) and inactive: -0.57 (compound concentration: 10 uM).
